Test results taken from publication PMC9338313.

Protein sequences, listed by entry. Tags and fused reporters are not part of them. Lines headed by an entry give the natural chain unless they say otherwise; changes in a name come on top.
UniProt Q9Y4A5: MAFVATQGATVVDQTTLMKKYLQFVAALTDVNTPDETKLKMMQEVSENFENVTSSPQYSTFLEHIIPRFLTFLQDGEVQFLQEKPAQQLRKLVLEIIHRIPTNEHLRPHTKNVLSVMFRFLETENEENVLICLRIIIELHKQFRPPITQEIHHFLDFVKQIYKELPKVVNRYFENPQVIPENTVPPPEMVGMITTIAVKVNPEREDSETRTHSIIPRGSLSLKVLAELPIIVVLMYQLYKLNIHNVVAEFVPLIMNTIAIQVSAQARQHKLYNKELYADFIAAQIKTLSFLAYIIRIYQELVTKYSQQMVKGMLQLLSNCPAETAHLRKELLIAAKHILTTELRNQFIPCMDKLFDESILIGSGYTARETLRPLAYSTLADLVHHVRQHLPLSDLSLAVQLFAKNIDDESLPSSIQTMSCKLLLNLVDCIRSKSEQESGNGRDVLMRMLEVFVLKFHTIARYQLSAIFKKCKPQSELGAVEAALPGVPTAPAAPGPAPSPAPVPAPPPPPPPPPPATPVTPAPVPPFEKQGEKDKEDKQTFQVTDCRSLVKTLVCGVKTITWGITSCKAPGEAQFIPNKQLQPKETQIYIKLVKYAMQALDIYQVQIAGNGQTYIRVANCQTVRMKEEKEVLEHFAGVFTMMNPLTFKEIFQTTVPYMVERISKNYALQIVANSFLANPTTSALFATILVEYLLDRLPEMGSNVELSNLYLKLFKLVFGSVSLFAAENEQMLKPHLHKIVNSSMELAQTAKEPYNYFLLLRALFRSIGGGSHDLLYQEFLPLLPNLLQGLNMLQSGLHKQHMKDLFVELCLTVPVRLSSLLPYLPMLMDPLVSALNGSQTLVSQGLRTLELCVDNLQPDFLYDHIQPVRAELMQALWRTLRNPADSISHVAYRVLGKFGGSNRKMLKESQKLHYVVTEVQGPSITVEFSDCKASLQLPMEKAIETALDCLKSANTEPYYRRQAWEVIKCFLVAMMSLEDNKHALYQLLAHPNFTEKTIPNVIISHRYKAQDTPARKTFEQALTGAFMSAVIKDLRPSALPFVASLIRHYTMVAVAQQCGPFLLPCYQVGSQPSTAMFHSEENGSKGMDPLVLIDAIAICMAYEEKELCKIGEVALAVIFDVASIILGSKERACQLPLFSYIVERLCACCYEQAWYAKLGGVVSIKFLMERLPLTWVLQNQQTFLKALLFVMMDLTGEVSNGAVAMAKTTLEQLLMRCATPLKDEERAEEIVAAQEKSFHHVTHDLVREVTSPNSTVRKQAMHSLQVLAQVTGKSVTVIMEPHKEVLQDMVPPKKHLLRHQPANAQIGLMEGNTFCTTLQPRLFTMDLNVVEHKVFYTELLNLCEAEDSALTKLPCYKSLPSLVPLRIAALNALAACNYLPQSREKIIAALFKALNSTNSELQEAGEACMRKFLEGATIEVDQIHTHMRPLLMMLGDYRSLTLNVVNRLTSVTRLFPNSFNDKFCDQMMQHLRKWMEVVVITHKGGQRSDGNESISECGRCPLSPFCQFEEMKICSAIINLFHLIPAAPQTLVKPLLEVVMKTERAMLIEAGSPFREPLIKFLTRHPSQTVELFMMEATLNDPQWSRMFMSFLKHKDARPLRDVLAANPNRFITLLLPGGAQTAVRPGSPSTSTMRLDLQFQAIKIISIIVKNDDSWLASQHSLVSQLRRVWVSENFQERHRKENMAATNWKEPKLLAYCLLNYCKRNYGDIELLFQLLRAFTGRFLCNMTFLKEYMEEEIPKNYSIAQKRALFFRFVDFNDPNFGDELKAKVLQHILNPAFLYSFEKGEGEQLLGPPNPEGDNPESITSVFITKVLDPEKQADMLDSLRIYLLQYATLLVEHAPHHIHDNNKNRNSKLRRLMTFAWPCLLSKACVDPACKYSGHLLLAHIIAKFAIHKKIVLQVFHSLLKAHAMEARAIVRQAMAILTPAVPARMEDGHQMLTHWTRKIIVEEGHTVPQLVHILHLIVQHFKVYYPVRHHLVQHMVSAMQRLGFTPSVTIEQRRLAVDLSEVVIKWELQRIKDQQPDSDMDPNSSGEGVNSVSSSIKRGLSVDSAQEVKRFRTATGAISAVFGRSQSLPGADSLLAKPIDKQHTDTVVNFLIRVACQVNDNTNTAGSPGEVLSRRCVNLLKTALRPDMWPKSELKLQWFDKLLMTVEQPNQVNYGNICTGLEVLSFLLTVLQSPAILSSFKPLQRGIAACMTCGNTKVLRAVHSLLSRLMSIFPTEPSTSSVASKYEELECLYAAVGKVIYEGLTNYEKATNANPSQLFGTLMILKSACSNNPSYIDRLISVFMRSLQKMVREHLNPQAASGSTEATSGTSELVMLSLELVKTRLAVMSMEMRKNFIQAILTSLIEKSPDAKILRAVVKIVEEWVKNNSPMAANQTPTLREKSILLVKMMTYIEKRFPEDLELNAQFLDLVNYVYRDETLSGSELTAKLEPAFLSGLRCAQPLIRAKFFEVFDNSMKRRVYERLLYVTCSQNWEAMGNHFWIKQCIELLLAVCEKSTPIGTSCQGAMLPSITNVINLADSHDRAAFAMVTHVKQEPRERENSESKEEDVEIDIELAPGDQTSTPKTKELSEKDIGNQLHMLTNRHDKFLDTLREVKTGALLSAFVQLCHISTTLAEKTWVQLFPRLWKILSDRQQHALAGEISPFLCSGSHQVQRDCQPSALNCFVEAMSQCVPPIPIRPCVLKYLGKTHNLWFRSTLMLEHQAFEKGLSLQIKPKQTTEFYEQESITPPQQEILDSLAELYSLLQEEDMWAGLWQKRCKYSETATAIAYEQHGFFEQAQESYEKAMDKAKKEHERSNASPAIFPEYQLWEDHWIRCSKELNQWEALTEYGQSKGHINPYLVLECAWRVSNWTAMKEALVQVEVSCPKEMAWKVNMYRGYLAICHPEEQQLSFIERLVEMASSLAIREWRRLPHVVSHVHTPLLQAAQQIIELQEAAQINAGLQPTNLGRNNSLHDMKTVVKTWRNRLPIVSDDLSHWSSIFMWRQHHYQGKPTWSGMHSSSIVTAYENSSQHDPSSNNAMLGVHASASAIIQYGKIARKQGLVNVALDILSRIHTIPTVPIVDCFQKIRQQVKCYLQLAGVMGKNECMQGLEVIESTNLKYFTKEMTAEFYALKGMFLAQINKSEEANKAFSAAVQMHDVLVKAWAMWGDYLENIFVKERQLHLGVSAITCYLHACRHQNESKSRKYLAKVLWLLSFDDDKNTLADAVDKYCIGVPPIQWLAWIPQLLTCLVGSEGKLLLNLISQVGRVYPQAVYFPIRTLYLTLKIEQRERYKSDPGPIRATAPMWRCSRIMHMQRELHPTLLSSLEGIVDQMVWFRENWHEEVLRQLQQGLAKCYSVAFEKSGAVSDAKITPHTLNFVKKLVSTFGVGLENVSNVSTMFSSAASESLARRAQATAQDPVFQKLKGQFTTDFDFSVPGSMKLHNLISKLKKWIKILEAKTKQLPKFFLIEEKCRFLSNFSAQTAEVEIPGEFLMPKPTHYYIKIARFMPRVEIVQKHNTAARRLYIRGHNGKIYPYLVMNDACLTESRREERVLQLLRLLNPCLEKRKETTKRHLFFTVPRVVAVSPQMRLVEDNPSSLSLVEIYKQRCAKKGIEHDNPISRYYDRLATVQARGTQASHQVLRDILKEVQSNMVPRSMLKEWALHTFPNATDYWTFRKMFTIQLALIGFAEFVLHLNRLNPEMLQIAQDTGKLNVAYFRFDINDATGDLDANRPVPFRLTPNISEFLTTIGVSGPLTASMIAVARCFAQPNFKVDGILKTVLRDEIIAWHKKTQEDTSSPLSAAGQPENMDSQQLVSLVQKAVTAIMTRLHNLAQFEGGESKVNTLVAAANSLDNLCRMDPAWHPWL
UniProt Q92993: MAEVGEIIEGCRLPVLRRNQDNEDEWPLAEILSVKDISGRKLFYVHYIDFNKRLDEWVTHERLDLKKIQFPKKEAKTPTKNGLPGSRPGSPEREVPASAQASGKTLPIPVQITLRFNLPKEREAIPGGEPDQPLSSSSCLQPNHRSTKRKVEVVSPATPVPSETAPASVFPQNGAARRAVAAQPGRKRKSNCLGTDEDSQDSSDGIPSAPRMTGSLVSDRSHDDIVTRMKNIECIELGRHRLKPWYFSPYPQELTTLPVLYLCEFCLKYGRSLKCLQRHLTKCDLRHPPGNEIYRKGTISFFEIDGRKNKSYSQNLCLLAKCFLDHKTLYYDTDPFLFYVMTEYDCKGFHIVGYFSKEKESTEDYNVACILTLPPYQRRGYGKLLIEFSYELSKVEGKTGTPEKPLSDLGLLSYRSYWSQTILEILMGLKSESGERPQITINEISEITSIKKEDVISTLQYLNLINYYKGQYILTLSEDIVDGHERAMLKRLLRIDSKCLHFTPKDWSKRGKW
UniProt Q9NXR8: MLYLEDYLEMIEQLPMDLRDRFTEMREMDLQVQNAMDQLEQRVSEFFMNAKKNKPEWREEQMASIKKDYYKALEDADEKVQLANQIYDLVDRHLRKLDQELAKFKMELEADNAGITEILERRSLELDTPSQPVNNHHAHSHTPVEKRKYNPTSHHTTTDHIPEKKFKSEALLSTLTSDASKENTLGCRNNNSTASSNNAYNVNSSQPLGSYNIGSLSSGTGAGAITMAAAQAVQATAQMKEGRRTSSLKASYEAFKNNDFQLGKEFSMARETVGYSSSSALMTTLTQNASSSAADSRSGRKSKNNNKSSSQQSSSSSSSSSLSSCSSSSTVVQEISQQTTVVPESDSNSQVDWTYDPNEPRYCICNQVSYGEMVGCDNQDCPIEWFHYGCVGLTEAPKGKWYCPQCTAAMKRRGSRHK
UniProt O95619: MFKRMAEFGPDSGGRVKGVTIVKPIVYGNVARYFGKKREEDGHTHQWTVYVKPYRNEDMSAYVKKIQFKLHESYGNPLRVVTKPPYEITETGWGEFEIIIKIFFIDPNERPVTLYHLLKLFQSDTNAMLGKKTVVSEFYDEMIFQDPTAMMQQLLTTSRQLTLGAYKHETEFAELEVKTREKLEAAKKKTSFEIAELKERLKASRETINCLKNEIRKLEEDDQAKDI
UniProt Q00613: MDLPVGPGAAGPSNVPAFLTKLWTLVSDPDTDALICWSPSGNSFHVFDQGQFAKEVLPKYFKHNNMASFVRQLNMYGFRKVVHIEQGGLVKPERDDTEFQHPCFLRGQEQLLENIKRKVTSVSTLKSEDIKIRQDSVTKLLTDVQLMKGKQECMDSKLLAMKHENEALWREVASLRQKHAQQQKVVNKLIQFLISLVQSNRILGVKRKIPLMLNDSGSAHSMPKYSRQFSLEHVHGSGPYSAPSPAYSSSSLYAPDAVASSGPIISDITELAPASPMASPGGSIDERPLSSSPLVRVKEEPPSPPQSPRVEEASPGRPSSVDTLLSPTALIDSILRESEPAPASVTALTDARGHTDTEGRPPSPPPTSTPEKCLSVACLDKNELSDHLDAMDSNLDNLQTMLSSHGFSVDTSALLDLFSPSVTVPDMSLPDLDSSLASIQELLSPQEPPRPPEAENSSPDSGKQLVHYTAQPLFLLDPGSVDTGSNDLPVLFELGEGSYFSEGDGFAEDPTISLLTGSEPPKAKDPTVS
UniProt P53350: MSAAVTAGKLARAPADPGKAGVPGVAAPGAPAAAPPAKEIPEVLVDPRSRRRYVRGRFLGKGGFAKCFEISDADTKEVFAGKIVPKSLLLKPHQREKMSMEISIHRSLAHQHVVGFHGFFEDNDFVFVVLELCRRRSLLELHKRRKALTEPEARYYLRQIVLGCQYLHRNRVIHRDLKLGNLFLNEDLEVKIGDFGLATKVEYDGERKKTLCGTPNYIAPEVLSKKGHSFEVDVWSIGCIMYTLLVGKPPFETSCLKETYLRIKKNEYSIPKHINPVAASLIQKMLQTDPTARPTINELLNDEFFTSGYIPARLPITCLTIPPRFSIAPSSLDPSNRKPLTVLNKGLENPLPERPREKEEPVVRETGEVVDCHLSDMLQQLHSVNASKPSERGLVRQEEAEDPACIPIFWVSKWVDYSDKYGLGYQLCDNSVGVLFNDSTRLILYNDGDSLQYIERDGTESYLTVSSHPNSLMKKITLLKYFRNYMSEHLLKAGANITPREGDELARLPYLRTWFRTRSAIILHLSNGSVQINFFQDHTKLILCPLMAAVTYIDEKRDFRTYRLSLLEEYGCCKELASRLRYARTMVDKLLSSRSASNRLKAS
UniProt Q8TDX7: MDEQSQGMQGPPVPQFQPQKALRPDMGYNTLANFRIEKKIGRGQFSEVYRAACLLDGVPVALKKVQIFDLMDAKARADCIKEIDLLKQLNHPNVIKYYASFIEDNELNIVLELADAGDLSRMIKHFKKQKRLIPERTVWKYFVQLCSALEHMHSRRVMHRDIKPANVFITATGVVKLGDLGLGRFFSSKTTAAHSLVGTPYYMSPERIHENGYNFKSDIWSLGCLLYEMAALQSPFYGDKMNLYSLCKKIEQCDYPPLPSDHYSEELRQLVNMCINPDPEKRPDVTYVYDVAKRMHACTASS

Target: hTRRAP (isoform 2, accession number NP_003487) tagged with 3×FLAG peptide at the C-terminus (human) (UniProt Q9Y4A5)
Experiment: affinity purification with mass spectrometry; nuclear extracts (150 mM NaCl, 1% NP-40) of HeLa-hTRRAP-3×FLAG cells untreated or heat-shocked at 42 °C for 10 or 30 min; anti-FLAG M2 affinity gel, eluted with FLAG peptide; normalised to HeLa cells

Row | Molecule | binding
1 | TIP60 (from UniProt Q92993 1-513) (enzyme) | binds
2 | p400 (from UniProt Q96L91 1-3159) | binds
3 | ING3 (from UniProt Q9NXR8 1-418) | binds
4 | GAS41 (from UniProt O95619 1-227) | binds

Target: heat shock transcription factor 1 (HSF1) (human (endogenous in HeLa)) (UniProt Q00613)
Experiment: affinity purification with mass spectrometry; ChIP-MS: HeLa cells untreated or heat-shocked at 42 °C (5, 30, 60 min), fixed with 1% formaldehyde, sonicated chromatin precipitated with anti-mHSF1j serum or preimmune serum on Dynabeads Protein A, washed with RIPA wash buffer (0.25 M LiCl)

Row | Molecule | binding
5 | EP300 (p300) (from UniProt Q09472 1-2414) (enzyme) | binds
6 | TRRAP (from UniProt Q9Y4A5 1-3859) | binds
7 | PLK1 (from UniProt P53350 1-603) (enzyme) | binds
8 | TRIM28 (from UniProt Q13263 1-835) | binds
9 | CREBBP (CBP) (from UniProt Q92793 1-2442) (enzyme) | binds

Further lines, results first:

Row | binding | Molecule
10 | binds | NEK7 (from UniProt Q8TDX7 1-302) (enzyme)
11 | binds | tripartite motif (TRIM) 33 (from UniProt Q9UPN9 1-1127)
12 | binds | TRIM24 (protein, UniProt O15164 1-1050) MEVAVEKAVAAAAAASAAASGGPSAAPSGENEAESRQGPDSERGGEAARLNLLDTCAVCHQNIQSRAPKLLPCLHSFCQRCLPAPQRYLMLPAPMLGSAETPPPVPAPGSPVSGSSPFATQVGVIRCPVCSQECAERHIIDNFFVKDTTEVPSSTVEKSNQVCTSCEDNAEANGFCVECVEWLCKTCIRAHQRVKFTKDHTVRQKEEVSPEAVGVTSQRPVFCPFHKKEQLKLYCETCDKLTCRDCQLLEHKEHRYQFIEEAFQNQKVIIDTLITKLMEKTKYIKFTGNQIQNRIIEVNQNQKQVEQDIKVAIFTLMVEINKKGKALLHQLESLAKDHRMKLMQQQQEVAGLSKQLEHVMHFSKWAVSSGSSTALLYSKRLITYRLRHLLRARCDASPVTNNTIQFHCDPSFWAQNIINLGSLVIEDKESQPQMPKQNPVVEQNSQPPSGLSSNQLSKFPTQISLAQLRLQHMQQQVMAQRQQVQRRPAPVGLPNPRMQGPIQQPSISHQQPPPRLINFQNHSPKPNGPVLPPHPQQLRYPPNQNIPRQAIKPNPLQMAFLAQQAIKQWQISSGQGTPSTTNSTSSTPSSPTITSAAGYDGKAFGSPMIDLSSPVGGSYNLPSLPDIDCSSTIMLDNIVRKDTNIDHGQPRPPSNRTVQSPNSSVPSPGLAGPVTMTSVHPPIRSPSASSVGSRGSSGSSSKPAGADSTHKVPVVMLEPIRIKQENSGPPENYDFPVVIVKQESDEESRPQNANYPRSILTSLLLNSSQSSTSEETVLRSDAPDSTGDQPGLHQDNSSNGKSEWLDPSQKSPLHVGETRKEDDPNEDWCAVCQNGGELLCCEKCPKVFHLSCHVPTLTNFPSGEWICTFCRDLSKPEVEYDCDAPSHNSEKKKTEGLVKLTPIDKRKCERLLLFLYCHEMSLAFQDPVPLTVPDYYKIIKNPMDLSTIKKRLQEDYSMYSKPEDFVADFRLIFQNCAEFNEPDSEVANAGIKLENYFEELLKNLYPEKRFPKPEFRNESEDNKFSDDSDDDFVQPRKKRLKSIEERQLLK

Results are given in words; binding and its absence hold for the method and conditions named. In cells and extracts the contact can be indirect. These calls come from enrichment with a bait or labelling near it, and not all partners need be listed.
